No constants are given. Whether binding was seen depends on the method and setting. In cells and extracts the contact can be indirect. Some results given as binding are weak or reduced against the parent protein; the word gives no strength. For part of these data: Tags and fused reporters may be left off the sequences shown.

Protein sequences, listed by entry. Tags and fused reporters are not part of them. Lines headed by an entry give the natural chain unless they say otherwise; changes in a name come on top.
UniProt Q8N6T7: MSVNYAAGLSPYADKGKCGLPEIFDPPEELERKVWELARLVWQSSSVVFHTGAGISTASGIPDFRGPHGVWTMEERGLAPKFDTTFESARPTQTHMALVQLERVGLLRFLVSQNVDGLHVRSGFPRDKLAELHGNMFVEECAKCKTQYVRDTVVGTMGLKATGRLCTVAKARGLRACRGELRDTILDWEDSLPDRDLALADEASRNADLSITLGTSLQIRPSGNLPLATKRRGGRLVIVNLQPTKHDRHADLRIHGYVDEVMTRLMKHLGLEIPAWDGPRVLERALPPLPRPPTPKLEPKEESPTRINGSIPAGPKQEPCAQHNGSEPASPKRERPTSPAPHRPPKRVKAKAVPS
UniProt Q13309: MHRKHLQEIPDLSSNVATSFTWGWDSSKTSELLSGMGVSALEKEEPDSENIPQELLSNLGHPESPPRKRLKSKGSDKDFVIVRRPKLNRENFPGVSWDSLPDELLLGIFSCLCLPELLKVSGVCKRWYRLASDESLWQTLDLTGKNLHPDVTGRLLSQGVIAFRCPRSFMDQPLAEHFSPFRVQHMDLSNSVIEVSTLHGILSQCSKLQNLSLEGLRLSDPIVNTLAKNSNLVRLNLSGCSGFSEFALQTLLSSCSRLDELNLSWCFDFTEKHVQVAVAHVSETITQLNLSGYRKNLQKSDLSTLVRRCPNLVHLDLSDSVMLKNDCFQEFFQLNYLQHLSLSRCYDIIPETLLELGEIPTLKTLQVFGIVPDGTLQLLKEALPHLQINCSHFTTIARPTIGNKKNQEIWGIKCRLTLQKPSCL
UniProt Q04206: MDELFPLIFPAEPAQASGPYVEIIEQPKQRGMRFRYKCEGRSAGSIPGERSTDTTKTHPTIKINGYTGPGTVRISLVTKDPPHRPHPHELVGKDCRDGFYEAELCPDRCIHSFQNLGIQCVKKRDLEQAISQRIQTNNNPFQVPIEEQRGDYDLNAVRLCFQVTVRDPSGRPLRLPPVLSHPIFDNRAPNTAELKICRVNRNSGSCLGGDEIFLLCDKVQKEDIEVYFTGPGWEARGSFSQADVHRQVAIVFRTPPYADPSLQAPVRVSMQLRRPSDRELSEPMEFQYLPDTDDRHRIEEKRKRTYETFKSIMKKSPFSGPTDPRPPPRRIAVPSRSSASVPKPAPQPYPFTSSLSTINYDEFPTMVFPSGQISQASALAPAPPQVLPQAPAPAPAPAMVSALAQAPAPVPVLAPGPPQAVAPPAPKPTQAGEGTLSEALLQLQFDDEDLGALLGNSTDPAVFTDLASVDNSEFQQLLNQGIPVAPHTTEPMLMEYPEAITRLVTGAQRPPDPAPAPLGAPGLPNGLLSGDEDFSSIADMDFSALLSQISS
UniProt Q96KQ7: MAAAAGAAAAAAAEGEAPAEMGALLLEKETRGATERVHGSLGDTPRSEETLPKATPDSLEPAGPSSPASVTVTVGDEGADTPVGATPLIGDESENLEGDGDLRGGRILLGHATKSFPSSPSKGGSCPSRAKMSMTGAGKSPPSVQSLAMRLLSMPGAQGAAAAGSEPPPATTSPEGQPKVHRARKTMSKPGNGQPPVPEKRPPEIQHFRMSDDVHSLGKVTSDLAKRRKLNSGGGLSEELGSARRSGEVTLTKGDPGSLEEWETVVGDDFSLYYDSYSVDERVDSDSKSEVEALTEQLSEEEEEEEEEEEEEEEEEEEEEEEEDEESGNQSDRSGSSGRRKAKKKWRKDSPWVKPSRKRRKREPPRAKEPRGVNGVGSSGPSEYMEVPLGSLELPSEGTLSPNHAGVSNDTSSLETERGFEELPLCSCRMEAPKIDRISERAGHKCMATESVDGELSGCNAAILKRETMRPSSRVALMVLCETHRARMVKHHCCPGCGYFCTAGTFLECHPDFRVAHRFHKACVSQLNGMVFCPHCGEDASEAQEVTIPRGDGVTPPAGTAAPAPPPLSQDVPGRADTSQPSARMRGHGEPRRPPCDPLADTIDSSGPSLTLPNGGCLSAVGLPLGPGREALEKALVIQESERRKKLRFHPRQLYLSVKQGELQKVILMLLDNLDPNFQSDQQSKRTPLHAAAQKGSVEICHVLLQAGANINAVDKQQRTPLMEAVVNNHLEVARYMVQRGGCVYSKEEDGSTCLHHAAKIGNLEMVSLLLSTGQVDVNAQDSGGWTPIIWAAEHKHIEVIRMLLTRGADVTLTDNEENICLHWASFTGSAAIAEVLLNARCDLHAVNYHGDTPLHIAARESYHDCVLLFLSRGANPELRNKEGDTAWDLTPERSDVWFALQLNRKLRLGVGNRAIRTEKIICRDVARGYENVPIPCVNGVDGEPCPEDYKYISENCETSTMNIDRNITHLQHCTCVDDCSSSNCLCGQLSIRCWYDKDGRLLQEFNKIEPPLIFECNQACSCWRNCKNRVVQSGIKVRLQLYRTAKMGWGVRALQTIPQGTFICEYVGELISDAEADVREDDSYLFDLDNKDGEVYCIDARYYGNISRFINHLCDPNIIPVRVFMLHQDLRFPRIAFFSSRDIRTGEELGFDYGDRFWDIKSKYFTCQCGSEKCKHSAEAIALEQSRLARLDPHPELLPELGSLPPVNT

One test concerns the target SirT6-HA (UniProt Q8N6T7). Description: co-IP; HA immunoprecipitation (α-HA resin) of extracts from 293F cells co-transfected with SirT6-HA and an H3K9 HMT or a Myc-tagged Suv39h1 deletion mutant; washes with BC100 and BC500 (500 mM KCl).
The target in test [1] is FLAG-SKP2 (UniProt Q13309). Description: co-IP; supplementary figures cited beside Fig. 5b (printed 'Supplementary Figure 5b, c' and 'Supplementary Figure 6c'); constructs and format not shown.
For test [2], the target named is FLAG-SKP2 (UniProt Q13309). Description: co-IP; FLAG immunoprecipitation of extracts from 293F cells transfected with FLAG-SKP2 (or FLAG-Cul2) together with Myc-Suv39h1 or SirT6-HA.
A further test addresses FLAG-RelA (UniProt Q04206). Description: co-IP; anti-FLAG resin, extracts from 293F cells transfected with FLAG-RelA and Myc-Suv39h1, in presence or absence of TNFα.

Turning to “G9a (from UniProt Q96KQ7 1-1210) (enzyme)”, the binding entry with SirT6-HA is given as “binds”.

As to “RelA (as in the co-precipitation with SKP2) (from UniProt Q04206 1-551)”, the binding entry in the test with FLAG-SKP2 [1] is “binds”.

In the case of “SirT6 H133Y (from UniProt Q8N6T7 1-355) (enzyme)”, the binding result in the test with FLAG-SKP2 [1] was “binds”.

Take “SirT6-HA (from UniProt Q8N6T7 1-355) (enzyme)”: the binding entry with FLAG-SKP2 [2] and in the test with FLAG-SKP2 [1] was “binds” throughout.

B1: Myc-Suv39h1 full-length (enzyme, UniProt O54864 1-412)
chain: MAENLKGCSVCCKSSWNQLQDLCRLAKLSCPALGVSKKNLYDFEVEYLCDYKKIREQEYYLVKWRGYPDSENTWEPRQNLKCIRVLKQFHKDLERELVRRHRRSKPPRHLDPNLANYLVQKAKQRRALQRWEQELNAKRSHLGRITVENEVDLDGPPRSFVYINEYRVGEGITLNQVAVGCECQDCLLAPTGGCCPGASLHKFAYNDQGQVRLKAGQPIYECNSRCCCGYDCPNRVVQKGIRYDLCIFRTNDGRGWGVRTLEKIRKNSFVMEYVGEIITSEEAERRGQIYDRQGATYLFDLDYVEDVYTVDAAYYGNISHFVNHSCDPNLQVYNVFIDNLDERLPRIAFFATRTIWAGEELTFDYNMQVDPVDMESTRMDSNFGLAGLPGSPKKRVRIECKCGTTACRKYLF
For the molecule B1, the binding entry in the test with FLAG-SKP2 [2], with SirT6-HA and with FLAG-RelA was “binds” throughout.

B2: Myc-tagged Suv39h1 deletion mutant with the SET and POST-SET domains (the last 172 residues) (domain or fragment, UniProt O54864 240-412)
chain: GIRYDLCIFRTNDGRGWGVRTLEKIRKNSFVMEYVGEIITSEEAERRGQIYDRQGATYLFDLDYVEDVYTVDAAYYGNISHFVNHSCDPNLQVYNVFIDNLDERLPRIAFFATRTIWAGEELTFDYNMQVDPVDMESTRMDSNFGLAGLPGSPKKRVRIECKCGTTACRKYLF
Turning to B2, the binding entry in the test with SirT6-HA is recorded as “binds”.

The values above are taken from paper PMC5760577.
